According to patent US20250144186A1, “NOVEL THERAPEUTIC USES OF GARDNERELLA ENDOLYSINS” (priority 2022, published 2025):

How the values were obtained:
G. vaginalis biofilm = test: MBEC on pre-formed biofilms of ancestor isolates; type: cell-based, Gardnerella vaginalis
Method: (§1) Gardnerella spp. (see figures for strain specification) was resuspended in brain heart infusion broth supplemented with 2% (w/v) gelatin, 0.5% yeast extract (w/v), 0.1% starch (w/v) and 0.25% glucose (w/v) (sBHIG). Passaged strains were resuspended in unbuffered NYCB supplemented with 1% glucose (w/v) (sNYCB). The OD600 was set to 0.1 (approx. 10^7-10^8 CFU/mL) and the cell suspension was diluted 1:10 in growth medium as input for biofilm formation. A total of 200 μL of the respective bacterial suspensions was added to 96-well flat bottom plates (tissue-culture treated, Sigma-Aldrich). The biofilms were grown under anaerobic conditions at 37° C. for 40 to 72 hours, depending on the isolate. Subsequently, the supernatant was removed, and the biofilm was treated with antimicrobials dissolved in sBHIG (at pH 5 for treatment with PM-477 (H2B10), and unbuffered for treatment with antibiotics) in 100 μL and incubated anaerobically at 37° C. for another 24 hours. After the treatment, the biofilms were washed twice with 200 μL 1x PBS and dissolved by vigorous pipetting (40x up and down). Serial dilutions of the dissolved cells were spotted on chocolate agar plates. The plates were incubated anaerobically for two to three days and the minimum biofilm eradication concentration (MBEC) of the endolysin or the antibiotics in use were calculated.
Gardnerella dominated biofilms covering the human vaginal epithelial cells are now generally considered as a hallmark of BV. Thus, it was tested how effective antibiotics and PM-477 (H2B10) are in penetrating and killing in vitro pre-formed, 40-72 h old biofilms of various Gardnerella strains.

[1] = tested on: Gardnerella strains grown as biofilm; test: MBEC on pre-formed biofilms, summary over ancestor strains; type: cell-based, Gardnerella spp.
Method: as §1, with “calculated. […]” for “calculated.”

SMILES: CCC[C@@H]1C[C@@H](C(=O)N[C@@H]([C@H]2O[C@H](SC)[C@H](O)[C@@H](O)[C@H]2O)[C@H](C)Cl)N(C)C1 [CLI, clindamycin]
- MBEC (G. vaginalis biofilm; ancestor G. vaginalis ATCC14018, pre-formed biofilm, 24 h treatment): >512 µg/mL
- MBEC (G. vaginalis biofilm; ancestor G. vaginalis UGent 09.07, pre-formed biofilm): >512 µg/mL
- MBEC (G. vaginalis biofilm; ancestor G. vaginalis UGent BV50, pre-formed biofilm): >512 µg/mL
- MBEC (G. vaginalis biofilm; ancestor G. vaginalis UGent BV111.5, pre-formed biofilm): >512 µg/mL
- MBEC (G. vaginalis biofilm; ancestor G. vaginalis UGent FB049, pre-formed biofilm): >512 µg/mL
- MBEC ([1]; 7 out of 9 tested Gardnerella strains, biofilm): > 512 µg/mL
- MBEC, range over strains ([1]; ancestor Gardnerella strains, 40-72 h old pre-formed biofilms): ≥ 512 µg/mL
